# PubChem BioAssay AID1259254, NCATS, 2017
# Test: 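Genome-wide screen for genes that prevent DNA re-replication in cancer cells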 (primary screen)
# Cells: human HCT116 colorectal cancer cells
# Reagent: single siRNA against human genes
# Duration: 3 days
# Measurement: 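Nuclei stained with Hoechst and imaged; cell-cycle phase assigned by DNA content; G2 share scaled per plate, non-targeting siRNA 0%, GMNN siRNA 100%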
# Reading the numbers: G2 robust z-score and G2 cells, % of GMNN control: higher = more G2 cells, more excess DNA replication
# Rule for the call: 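An siRNA counts as active if its G2 robust z-score lies at least 5 MADs above the screen median; here such calls match roughly 38% of GMNN control or more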
# In all, the deposit lists about 59,000 reagents; below is a part drawn at random. In the full data, about 1,550 (2.6%) got an active call. 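G2 share is only a proxy for re-replication; each gene was hit by three separate siRNAs, and active genes were retested.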 The numbers tell different reagents against one gene apart. Further read-outs or replicates are left out here. The record does not give: the amount of reagent.
gene knocked down,reagent no.,G2 robust z-score,"G2 cells, % of GMNN control",call
FMN2 (formin 2),1,-0.151,1.91,inactive
FMN2 (formin 2),2,-0.898,-3.35,inactive
FMN2 (formin 2),3,-0.77,-2.45,inactive
PIANP (PILR alpha associated neural protein),1,1,10,inactive
PIANP (PILR alpha associated neural protein),2,3.31,26.3,inactive
PIANP (PILR alpha associated neural protein),3,0.916,9.41,inactive
MAGEB2 (MAGE family member B2),1,-0.866,-3.13,inactive
MAGEB2 (MAGE family member B2),2,0.163,4.12,inactive
MAGEB2 (MAGE family member B2),3,-0.506,-0.593,inactive
CYP7A1 (cytochrome P450 family 7 subfamily A member 1),1,-0.204,1.53,inactive
CYP7A1 (cytochrome P450 family 7 subfamily A member 1),2,0.751,8.25,inactive
CYP7A1 (cytochrome P450 family 7 subfamily A member 1),3,0.931,9.52,inactive
SLC25A19,1,-0.823,-2.82,inactive
SLC25A19,2,0.569,6.97,inactive
SLC25A19,3,-0.139,1.99,inactive
KCNK17 (potassium two pore domain channel subfamily K member 17),1,-0.18,1.7,inactive
KCNK17 (potassium two pore domain channel subfamily K member 17),2,2.78,22.6,inactive
KCNK17 (potassium two pore domain channel subfamily K member 17),3,-1.44,-7.16,inactive
KRT79 (keratin 79),1,-0.649,-1.6,inactive
KRT79 (keratin 79),2,-0.634,-1.49,inactive
KRT79 (keratin 79),3,-0.792,-2.6,inactive
SLC25A20,1,1.53,13.7,inactive
SLC25A20,2,-1.04,-4.34,inactive
SLC25A20,3,-0.835,-2.91,inactive
MIR3976HG (MIR3976 host gene),1,0.583,7.07,inactive
MIR3976HG (MIR3976 host gene),2,13.7,99.1,active
MIR3976HG (MIR3976 host gene),3,1.54,13.8,inactive
ENGASE (endo-beta-N-acetylglucosaminidase),1,-0.136,2.01,inactive
ENGASE (endo-beta-N-acetylglucosaminidase),2,-0.743,-2.26,inactive
ENGASE (endo-beta-N-acetylglucosaminidase),3,-0.947,-3.69,inactive

Reformatted: 12 of the entries above.
SLC25A19 #1
- G2 robust z-score: -0.823
- G2 cells, % of GMNN control: -2.82
- call: inactive

SLC25A19 #2
- G2 robust z-score: 0.569
- G2 cells, % of GMNN control: 6.97
- call: inactive

SLC25A19 #3
- G2 robust z-score: -0.139
- G2 cells, % of GMNN control: 1.99
- call: inactive

KCNK17 (potassium two pore domain channel subfamily K member 17) #1
- G2 robust z-score: -0.18
- G2 cells, % of GMNN control: 1.7
- call: inactive

KCNK17 (potassium two pore domain channel subfamily K member 17) #2
- G2 robust z-score: 2.78
- G2 cells, % of GMNN control: 22.6
- call: inactive

KCNK17 (potassium two pore domain channel subfamily K member 17) #3
- G2 robust z-score: -1.44
- G2 cells, % of GMNN control: -7.16
- call: inactive

KRT79 (keratin 79) #1
- G2 robust z-score: -0.649
- G2 cells, % of GMNN control: -1.6
- call: inactive

KRT79 (keratin 79) #2
- G2 robust z-score: -0.634
- G2 cells, % of GMNN control: -1.49
- call: inactive

KRT79 (keratin 79) #3
- G2 robust z-score: -0.792
- G2 cells, % of GMNN control: -2.6
- call: inactive

SLC25A20 #1
- G2 robust z-score: 1.53
- G2 cells, % of GMNN control: 13.7
- call: inactive

SLC25A20 #2
- G2 robust z-score: -1.04
- G2 cells, % of GMNN control: -4.34
- call: inactive

SLC25A20 #3
- G2 robust z-score: -0.835
- G2 cells, % of GMNN control: -2.91
- call: inactive

Additional reagents follow:
gene knocked down,reagent no.,G2 robust z-score,"G2 cells, % of GMNN control",call
DIRAS1 (DIRAS family GTPase 1),1,2.58,21.1,inactive
DIRAS1 (DIRAS family GTPase 1),2,0.612,7.27,inactive
DIRAS1 (DIRAS family GTPase 1),3,-0.399,0.159,inactive
SLC7A4,1,-0.0563,2.57,inactive
SLC7A4,2,1.02,10.1,inactive
SLC7A4,3,-1.28,-6.01,inactive
KRTCAP2 (keratinocyte associated protein 2),1,0.205,4.41,inactive
KRTCAP2 (keratinocyte associated protein 2),2,0.406,5.82,inactive
KRTCAP2 (keratinocyte associated protein 2),3,2.02,17.2,inactive
CHCHD7 (coiled-coil-helix-coiled-coil-helix domain containing 7),1,0.413,5.87,inactive
CHCHD7 (coiled-coil-helix-coiled-coil-helix domain containing 7),2,-0.144,1.95,inactive
CHCHD7 (coiled-coil-helix-coiled-coil-helix domain containing 7),3,-0.0285,2.77,inactive
FUT5 (fucosyltransferase 5),1,-0.497,-0.528,inactive
FUT5 (fucosyltransferase 5),2,-1.55,-7.96,inactive
FUT5 (fucosyltransferase 5),3,-0.355,0.466,inactive
CDH7 (cadherin 7),1,1.38,12.7,inactive
CDH7 (cadherin 7),2,-0.0214,2.82,inactive
CDH7 (cadherin 7),3,-1.32,-6.29,inactive
GPRC5A (G protein-coupled receptor class C group 5 member A),1,0.289,5,inactive
GPRC5A (G protein-coupled receptor class C group 5 member A),2,-1.38,-6.77,inactive
GPRC5A (G protein-coupled receptor class C group 5 member A),3,-0.14,1.98,inactive
WIPF1 (WAS/WASL interacting protein family member 1),1,-0.334,0.62,inactive
WIPF1 (WAS/WASL interacting protein family member 1),2,1.31,12.2,inactive
WIPF1 (WAS/WASL interacting protein family member 1),3,0.346,5.4,inactive
KLHL35 (kelch like family member 35),1,4.49,34.6,inactive
KLHL35 (kelch like family member 35),2,-0.0339,2.73,inactive
KLHL35 (kelch like family member 35),3,-0.402,0.138,inactive
TIMP3 (TIMP metallopeptidase inhibitor 3),1,3.49,27.5,inactive
TIMP3 (TIMP metallopeptidase inhibitor 3),2,0.0211,3.12,inactive
TIMP3 (TIMP metallopeptidase inhibitor 3),3,-0.617,-1.37,inactive
COG2 (component of oligomeric golgi complex 2),1,-1.16,-5.18,inactive
COG2 (component of oligomeric golgi complex 2),2,1.52,13.7,inactive
COG2 (component of oligomeric golgi complex 2),3,-0.433,-0.0767,inactive
CD79A (CD79a molecule),1,0.69,7.82,inactive
CD79A (CD79a molecule),2,-1.1,-4.78,inactive
CD79A (CD79a molecule),3,-0.91,-3.43,inactive
SPRR1B (small proline rich protein 1B),1,-0.704,-1.98,inactive
SPRR1B (small proline rich protein 1B),2,-0.319,0.721,inactive
SPRR1B (small proline rich protein 1B),3,1.43,13,inactive
ZNF705G (zinc finger protein 705G),1,0.619,7.32,inactive
ZNF705G (zinc finger protein 705G),2,0.468,6.26,inactive
ZNF705G (zinc finger protein 705G),3,-0.51,-0.624,inactive
ANO1 (anoctamin 1),1,0.807,8.65,inactive
ANO1 (anoctamin 1),2,0.0181,3.09,inactive
ANO1 (anoctamin 1),3,3.92,30.6,inactive
"ST3GAL1 (ST3 beta-galactoside alpha-2,3-sialyltransferase 1)",1,1.85,16,inactive
"ST3GAL1 (ST3 beta-galactoside alpha-2,3-sialyltransferase 1)",2,-0.762,-2.39,inactive
"ST3GAL1 (ST3 beta-galactoside alpha-2,3-sialyltransferase 1)",3,0.273,4.89,inactive
CYLC2 (cylicin 2),1,-0.0805,2.4,inactive
CYLC2 (cylicin 2),2,-0.802,-2.67,inactive
CYLC2 (cylicin 2),3,-0.698,-1.94,inactive
OR4K17 (olfactory receptor family 4 subfamily K member 17),1,-0.797,-2.64,inactive
OR4K17 (olfactory receptor family 4 subfamily K member 17),2,-0.00572,2.93,inactive
OR4K17 (olfactory receptor family 4 subfamily K member 17),3,-0.544,-0.862,inactive
ZNF366 (zinc finger protein 366),1,0.901,9.31,inactive
ZNF366 (zinc finger protein 366),2,-0.149,1.92,inactive
ZNF366 (zinc finger protein 366),3,0.912,9.38,inactive
